Assay results: US20230070126A1
Results are given in words; binding and its absence hold for the method and conditions named. In cells and extracts the contact can be indirect. Some binding calls cover weakened binding; strength is not graded here.

By UniProt entry, the sequences of proteins in these tests, tags left out. Residues count along the entry.
UniProt P22646, residues 135-189: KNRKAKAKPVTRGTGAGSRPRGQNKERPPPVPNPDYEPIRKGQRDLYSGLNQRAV
UniProt P06239, residues 2-509: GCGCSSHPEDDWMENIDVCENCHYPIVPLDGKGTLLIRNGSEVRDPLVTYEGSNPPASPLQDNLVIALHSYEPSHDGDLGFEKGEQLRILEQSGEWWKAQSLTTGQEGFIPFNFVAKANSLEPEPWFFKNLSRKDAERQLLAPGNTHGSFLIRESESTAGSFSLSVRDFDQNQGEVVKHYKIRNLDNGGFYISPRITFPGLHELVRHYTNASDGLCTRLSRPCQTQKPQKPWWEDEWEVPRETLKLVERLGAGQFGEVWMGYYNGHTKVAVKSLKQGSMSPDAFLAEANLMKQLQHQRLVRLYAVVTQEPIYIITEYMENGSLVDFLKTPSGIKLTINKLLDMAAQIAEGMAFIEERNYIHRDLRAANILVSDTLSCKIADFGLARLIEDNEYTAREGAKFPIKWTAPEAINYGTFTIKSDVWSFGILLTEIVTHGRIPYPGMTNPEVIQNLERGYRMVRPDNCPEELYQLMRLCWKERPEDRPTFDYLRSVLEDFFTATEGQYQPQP

Tests used:
[1] = biological target: biotinylated murine CD3ε-derived peptide, complete cytoplasmic tail, non-phosphorylated (murine) (UniProt P22646); assay: Jurkat lysate pull-down with biotinylated CD3ε peptides and streptavidin beads, immunoblot
[2] = biological target: biotinylated murine CD3ε-derived peptide, complete cytoplasmic tail, doubly ITAM tyrosine phosphorylated (murine) (UniProt P22646); assay: as above

binding [1]: binds
binding [2]: binds
Substance: endogenous full length LCK (lymphocyte specific Src kinase) of human T cells (from UniProt P06239 2-509) (enzyme)
